Several values for one entry are separate records, joined by “and”; a condition that tells them apart may be missing. Equal entries are not always repeated. This list was built around the results that the source calls inconclusive (neither active nor inactive); the mix of calls is not that of the screen. Potencies beside an inconclusive call are fits to weak or partial responses and may not hold up. Activity calls are given as the source filed them. The call rests on the fitted dose curve; in most records, active means well fitted curve in the direction sought with a large enough effect; inconclusive means small, poorly fitted or top-dose-only effect, or another doubt; inactive means no such curve, though single readings can be large; an effect the other way counts as inactive or inconclusive.
What was measured:
[1] = qHTS assay to identify small molecule inhibitors of chordoma cells - UCH-2 (AID 1259356)
[2] = P-glycoprotein substrates identified in KB-8-5-11 adenocarcinoma cell line, qHTS therapeutic library screen (AID 1346987); further: nearly all actives have a fitted effect of over 65% in size
In short: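 Compounds are pinned in dose-response onto KB-8-5-11 cells (500 cells/well, colchicine-free medium) and left 72 h at 37 degree C. CellTiter-Glo luminescence then yields AC50 values.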

[3] = qHTS assay to identify small molecule inhibitors of chordoma cells - UCH-1 (AID 1259355); further: nearly all actives have a fitted effect of over 55% in size; on Potency: series mostly up to about 46 µM
In short: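 Screening used approved and investigational drugs in 15-point titration against 800 seeded cells per well. A fixed combination of auranofin with camptothecin, doxorubicin, rubitecan and topotecan followed compound addition, and growth was scored by CellTiter-Glo after 48hr.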
Potency means the concentration at half of the fitted maximal effect.

Compound	Potency [1]	Potency [2]	Potency [3]
[H+].[H+].[Hg+2].[O-]B([O-])[O-].[c-]1ccccc1	active: 13 µM	active: 1.3 µM	
CC(=O)O[C@H]1C[C@H](O[C@H]2[C@@H](O)C[C@H](O[C@H]3[C@@H](O)C[C@H](OC4CC[C@@]5(C)[C@H](CC[C@@H]6[C@@H]5CC[C@]5(C)[C@@H](C7=CC(=O)OC7)CC[C@]65O)C4)O[C@@H]3C)O[C@@H]2C)O[C@H](C)[C@H]1O[C@@H]1O[C@H](CO)[C@@H](O)[C@H](O)[C@H]1O (stereo partly specified)	active: 0.259 µM	active: 0.259 µM	
O=C1C=C2C=C[C@@H]3C[C@@]2(O1)[C@H]1CCCCN31		inconclusive: 5.17 µM [inhibitor, partial curve]	inconclusive: 8.91 µM [cytotoxic, full curve, poor fit]
O=C1Nc2ccc(Cl)cc2C(c2ccccc2Cl)=NC1O (stereo unspecified)	inactive		
Oc1cc(Cl)c(Cl)cc1Cl		inactive	inactive
Oc1cc[c]([Hg][Cl])cc1	inconclusive: 25.9 µM [cytotoxic, single point]		
C[C@@H]1O[C@@H](O[C@H]2C[C@@H](O)[C@]3(CO)[C@H]4[C@H](O)C[C@]5(C)[C@@H](C6=CC(=O)OC6)CC[C@]5(O)[C@@H]4CC[C@]3(O)C2)[C@H](O)[C@H](O)[C@H]1O	active: 65.1 nM and active: 51.7 nM		
C=CCN=C=S	inactive	inactive	
COC(=O)[C@@H](N)CCCN/C(N)=N/[N+](=O)[O-]	inactive		
CCC1(c2ccccc2)C(=O)NC(=O)NC1=O		inactive	inconclusive: 0.794 µM [cytotoxic, full curve, poor fit]

Fetched one by one from the list above:
Compound	Potency [1]	Potency [2]	Potency [3]
O=C1Nc2ccc(Cl)cc2C(c2ccccc2Cl)=NC1O (stereo unspecified)	inactive		
[H+].[H+].[Hg+2].[O-]B([O-])[O-].[c-]1ccccc1	active: 13 µM	active: 1.3 µM	

Source: PubChem BioAssay (NCATS)
